For the assay, the target named is actin-binding domain (ABD) of S. pombe α-actinin (Schizosaccharomyces pombe) (UniProt O13728). The assay is described as follows: SEC; gel filtration on Superdex 200 10/300GL in 50 mM Tris-HCl, pH 7.6, 200 mM KCl (also Sephacryl S-400HR in 25 mM sodium phosphate, pH 7.6, 150 mM NaCl); elution compared with reference proteins; dimer formation judged from apparent size; both purified.

Protein sequences, listed by entry. Tags and fused reporters are not part of them. Residues count along the entry.
UniProt O13728, residues 1-234: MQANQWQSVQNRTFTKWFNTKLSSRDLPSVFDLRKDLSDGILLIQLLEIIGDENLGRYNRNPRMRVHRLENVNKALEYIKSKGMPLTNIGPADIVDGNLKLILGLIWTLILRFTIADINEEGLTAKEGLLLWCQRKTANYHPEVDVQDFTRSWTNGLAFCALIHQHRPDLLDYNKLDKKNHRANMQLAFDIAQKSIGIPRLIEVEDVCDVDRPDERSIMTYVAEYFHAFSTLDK

Results on one substance are retold here after PMC4824898.

These are yes or no findings as the source states them, for the method shown.

As for “actin-binding domain (ABD) of S. pombe α-actinin (from UniProt O13728 1-234) (domain or fragment)”, the binding result is “no binding”.
